Results are given in words; binding and its absence hold for the method and conditions named. In cells and extracts the contact can be indirect. Some binding calls cover weakened binding; strength is not graded here.

By UniProt entry, the sequences of proteins in these tests, tags left out.
UniProt Q14457: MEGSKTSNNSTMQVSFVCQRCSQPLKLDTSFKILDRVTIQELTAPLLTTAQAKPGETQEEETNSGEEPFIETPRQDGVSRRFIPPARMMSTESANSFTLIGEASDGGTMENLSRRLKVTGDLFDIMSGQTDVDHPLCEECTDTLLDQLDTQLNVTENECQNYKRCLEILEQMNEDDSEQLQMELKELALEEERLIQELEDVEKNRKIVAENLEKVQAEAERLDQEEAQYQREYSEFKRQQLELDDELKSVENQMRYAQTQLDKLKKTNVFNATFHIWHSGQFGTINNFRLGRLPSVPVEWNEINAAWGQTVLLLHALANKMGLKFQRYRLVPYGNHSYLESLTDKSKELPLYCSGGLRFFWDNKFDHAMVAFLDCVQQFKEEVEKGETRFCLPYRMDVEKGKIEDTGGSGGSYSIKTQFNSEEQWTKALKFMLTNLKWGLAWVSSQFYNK

In the test the target is T1, Transforming growth factor beta regulator 4 (human (endogenous in Huh7)) (UniProt Q969Z0).
T1 sequence: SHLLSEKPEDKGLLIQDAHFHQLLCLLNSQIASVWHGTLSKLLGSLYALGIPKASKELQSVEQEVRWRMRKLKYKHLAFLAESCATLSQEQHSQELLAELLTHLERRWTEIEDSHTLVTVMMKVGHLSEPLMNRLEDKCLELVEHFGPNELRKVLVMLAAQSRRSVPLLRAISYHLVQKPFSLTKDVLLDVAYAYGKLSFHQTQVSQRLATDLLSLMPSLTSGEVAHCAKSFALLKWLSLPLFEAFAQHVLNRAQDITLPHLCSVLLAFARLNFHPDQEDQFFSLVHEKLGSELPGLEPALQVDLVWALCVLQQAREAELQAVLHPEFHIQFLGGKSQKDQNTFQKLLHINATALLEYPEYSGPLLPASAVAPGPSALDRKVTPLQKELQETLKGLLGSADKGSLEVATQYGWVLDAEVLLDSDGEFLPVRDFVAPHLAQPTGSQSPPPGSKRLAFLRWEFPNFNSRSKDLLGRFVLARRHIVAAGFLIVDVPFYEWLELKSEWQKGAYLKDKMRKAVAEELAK
Nature of the test: co-IP; Huh7 cells lysed in RIPA; agarose beads and TBRG4 antibody, shaken overnight; Western blot; the results call it a reciprocal Co-IP. (In general: In western blotting, separated proteins are transferred to a membrane and probed.)

As to Beclin1 (from UniProt Q14457 1-450), the binding result was “binds”.

The values are drawn from publication PMC10860303.
